Source: paper PMC6199344
Results are given in words; binding and its absence hold for the method and conditions named. In cells and extracts the contact can be indirect.

Protein sequences, listed by entry. Tags and fused reporters are not part of them.
UniProt Q13148: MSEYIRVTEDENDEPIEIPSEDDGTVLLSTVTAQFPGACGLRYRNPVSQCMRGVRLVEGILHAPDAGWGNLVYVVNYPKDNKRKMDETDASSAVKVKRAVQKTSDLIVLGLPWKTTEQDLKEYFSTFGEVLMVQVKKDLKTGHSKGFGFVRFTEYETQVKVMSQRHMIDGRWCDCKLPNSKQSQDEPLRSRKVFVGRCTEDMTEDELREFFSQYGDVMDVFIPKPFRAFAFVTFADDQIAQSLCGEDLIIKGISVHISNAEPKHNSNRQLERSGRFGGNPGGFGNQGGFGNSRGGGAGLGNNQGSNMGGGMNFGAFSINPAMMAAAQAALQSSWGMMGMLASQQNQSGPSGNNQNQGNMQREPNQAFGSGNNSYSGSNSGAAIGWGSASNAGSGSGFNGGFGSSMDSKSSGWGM

Target: TAR DNA-binding protein 43 (human (endogenous in HEK293)) (UniProt Q13148)
Test: co-IP; endogenous proteins, nuclear extract of HEK293 TetOn-GFP cells without doxycycline; anti-TDP-43 mAb 5028 or mouse IgG control on Dynabeads Protein G, 4 °C overnight, Pierce IP lysis buffer; immunoblot for ELL, ELL2, TDP-43

binding: no binding
B1: ELL (protein, UniProt P55199 1-621)
chain: MAALKEDRSYGLSCGRVSDGSKVSVFHVKLTDSALRAFESYRARQDSVSLRPSIRFQGSQGHISIPQPDCPAEARTFSFYLSNIGRDNPQGSFDCIQQYVSSHGEVHLDCLGSIQDKITVCATDDSYQKARQSMAQAEEETRSRSAIVIKAGGRYLGKKVQFRKPAPGATDAVPSRKRATPINLASAIRKSGASAVSGGSGVSQRPFRDRVLHLLALRPYRKAELLLRLQKDGLTQADKDALDGLLQQVANMSAKDGTCTLQDCMYKDVQKDWPGYSEGDQQLLKRVLVRKLCQPQSTGSLLGDPAASSPPGERGRSASPPQKRLQPPDFIDPLANKKPRISHFTQRAQPAVNGKLGVPNGREALLPTPGPPASTDTLSSSTHLPPRLEPPRAHDPLADVSNDLGHSGRDCEHGEAAAPAPTVRLGLPLLTDCAQPSRPHGSPSRSKPKKKSKKHKDKERAAEDKPRAQLPDCAPATHATPGAPADTPGLNGTCSVSSVPTSTSETPDYLLKYAAISSSEQRQSYKNDFNAEYSEYRDLHARIERITRRFTQLDAQLRQLSQGSEEYETTRGQILQEYRKIKKTNTNYSQEKHRCEYLHSKLAHIKRLIAEYDQRQLQAWP
